Article PMC7221892, “In Vitro and in Vivo Activity of mTOR Kinase and PI3K Inhibitors Against Leishmania donovani and Trypanosoma brucei” (Molecules, 2020)

Experiment: Host cell cytotoxicity (CC50) in infected THP-1 cells, dose-dilution assay
Conditions: human
Method: PMA-treated THP-1 human monocytic cells were seeded at 0.8 × 10^4 cells per well in a 384-well culture plate (Greiner Bio-One, Kremsmünster, Austria) in RPMI-1640 complete medium supplemented with 10% FBS. After 48 h of incubation at 37 °C in the presence of 5% CO2, the promastigotes of L. donovani that were incubated with lectin for 30 min at 28 °C were added to the cells at a parasite to cell ratio of 20:1. […] The negative control consisted of THP-1 infected with the parasite with only 0.5% DMSO. After 72 h, the cells that were infected and treated with the drug were washed with serum-free RPMI-1640 medium. The cells and parasites were stained using 5 μM DRAQ5 and 4% PFA. The images were acquired based on reading using an Operetta® automated microscope (PerkinElmer, Inc., Waltham, MA 02451 USA). They were further analyzed using Columbus^TM (PerkinElmer, Inc. Waltham, MA, USA) software to quantify parasite numbers, host cell numbers, and infection ratios. In brief, large-sized nucleus of host cells was first detected using Draq-5 (Thermo Fisher, Rockford, IL, USA) signal and the host cell boundary masking was performed using the low-intensity signals from cytosols (additional feature of Draq-5). […]
All of the half maximal effective concentrations (EC50) and the half maximal cytotoxic concentrations (CC50) values were calculated using two independent experiments. […]

CC(C)n1nc(-c2cc3cc(O)ccc3[nH]2)c2c(N)ncnc21 [Torkinib]
CC50 at 72 h: 33.4 ± 1.4 µM
